Record: PubChem BioAssay AID652272 (Drosophila RNAi Screening Center, 2013)
The screen tested about 21,000 reagents; below is a random part of those with a known target gene and a result. In the full data, 503 (2.4%) are marked active. 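Raw plate light values, not normalised; calls rest on replicate z-scores that were not deposited; hits include reporter decreases as well as increases.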 Unmarked entries are inactive. Names joined by + are all predicted targets of the reagent. No sequences are given here. Not given: the amount of reagent, the time to read-out.

- Assay: 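Genome-wide knock-down search for components of Hedgehog signalling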 (primary screen)
- Cells: Drosophila clone 8 (Cl8) cells
- Reagent: long dsRNA against Drosophila genes
- Detection: 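Firefly light from a Hedgehog-responsive ptc promoter reporter and Renilla reference light, both read on a plate reader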
- Direction: firefly Hh reporter signal: higher = more ptc reporter light; Renilla reference signal: higher = more Renilla control light
- Hit rule: 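Hit when the z-score averaged over two replicates is under -2 or over +3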
- Calls: active = hit: reporter lowered or raised; inactive = not a hit

The first 6 records, ahead of the listing:
target gene | PubChem SID | firefly Hh reporter signal, replicate 1 | firefly Hh reporter signal, replicate 2 | firefly Hh reporter signal, replicate 3 | Renilla reference signal, replicate 1 | Renilla reference signal, replicate 2
ND-51 | SID104182937 | 74643 | 52155 | – | 2555 | 1914
bigmax | SID104195273 | 1.39e5 | 1.40e5 | – | 2992 | 3836
Gga | SID104198052 | 71018 | 63507 | – | 2001 | 1298
Atg18a | SID104190735 | 1.48e5 | 70808 | – | 6121 | 2749
puml | SID104186585 | 77729 | 48237 | – | 1882 | 3686
Yif1 | SID104195609 | 56951 | 1.20e5 | – | 2128 | 3462

Results, repeating the preview:
target gene | PubChem SID | firefly Hh reporter signal, replicate 1 | firefly Hh reporter signal, replicate 2 | firefly Hh reporter signal, replicate 3 | Renilla reference signal, replicate 1 | Renilla reference signal, replicate 2
ND-51 | SID104182937 | 74643 | 52155 | – | 2555 | 1914
bigmax | SID104195273 | 1.39e5 | 1.40e5 | – | 2992 | 3836
Gga | SID104198052 | 71018 | 63507 | – | 2001 | 1298
Atg18a | SID104190735 | 1.48e5 | 70808 | – | 6121 | 2749
puml | SID104186585 | 77729 | 48237 | – | 1882 | 3686
Yif1 | SID104195609 | 56951 | 1.20e5 | – | 2128 | 3462
CG42809 | SID104182324 | 1.27e5 | 58322 | – | 3504 | 5664
CLS | SID104195434 | 7.06e5 | 1.58e5 | – | 34247 | 4857
mfas | SID104196789 | 1.10e5 | 70624 | – | 4317 | 2677
CG43111 | SID104185588 | 1.19e5 | 3.18e5 | – | 3492 | 13659
SdhC | SID104195880 | 91896 | 1.62e5 | – | 1489 | 4789
Acsx3 | SID104194101 | 77968 | 61271 | – | 3387 | 2499
PPO2 | SID104186894 | 58324 | 37128 | – | 2976 | 1752
ProtA | SID104183164 | 88545 | 64307 | – | 2385 | 5300
Grx3 | SID104182758 | 1.26e5 | 62205 | – | 4925 | 2744
CG17325 + CG42305 | SID104182394 | 1.12e5 | 64907 | – | 2935 | 6264
Tep4 | SID104183245 | 70037 | 64352 | – | 1606 | 4345
uif | SID104180755 | 9.90e5 | 3.07e5 | – | 48697 | 12528
uif | SID104183219 | 1.65e5 | 89544 | – | 4096 | 8614
CG43068 | SID104185330 | 1.38e5 | 2.18e5 | – | 3463 | 9436
Dnaaf3 | SID104186476 | 99052 | 59079 | – | 2896 | 4292
Gbp2 | SID104185861 | 1.37e5 | 1.24e5 | – | 5869 | 4971
Ubr1 | SID104199940 | 71089 | 91244 | – | 2042 | 2805
COX5BL | SID104181915 | 1.34e5 | 70653 | – | 2520 | 7096
CG15767 | SID104197865 | 75101 | 1.73e5 | – | 3044 | 6813
CG12523 | SID104189687 | 62568 | 62729 | 5.28e5 | 6603 | 2707
cup | SID104183308 | 1.01e5 | 77386 | – | 3706 | 2560
CG32814 | SID104197462 | 5.08e5 | 2.23e5 | – | 23458 | 4998
CG11811 | SID104189654 | 48049 | 38963 | 57930 | 3587 | 4372
CG12538 | SID104194319 | 58988 | 57543 | – | 1563 | 1313
Rab26 | SID104191629 | 61671 | 38756 | – | 2027 | 834
Rab26 | SID104191630 | 85282 | 93259 | – | 2693 | 2505
Rab26 | SID104191631 | 92992 | 1.34e5 | – | 2476 | 3782
PQBP1 | SID104194185 | 89333 | 54487 | – | 3947 | 1139
Tsf1 | SID104200088 | 1.01e5 | 4.16e5 | – | 1735 | 14985
CCHa2-R | SID104184617 | 1.03e5 (active) | 1.48e5 | – | 3620 | 9312
CCHa2-R | SID104184662 | 90412 | 62549 | – | 1876 | 5223
CCHa2-R | SID104184663 | 88768 | 68801 | – | 1673 | 5494
CG11333 | SID104194093 | 90059 | 2.88e5 | – | 1883 | 11373
Nagk | SID104195786 | 1.13e5 | 1.25e5 | – | 4637 | 4795
Prosbeta5R1 | SID104184373 | 87426 | 57027 | – | 885 | 5276
CG15014 | SID104188260 | 74601 | 66866 | – | 6034 | 4503
Kdm4A | SID104186378 | 1.21e5 | 90640 | – | 4405 | 2888
CG8461 | SID104196216 | 2.12e5 | 99730 | – | 8252 | 3634
Dip-B | SID104196258 | 1.02e5 | 78048 | – | 4173 | 3090
CG10232 | SID104194010 | 3.83e5 | 96581 | – | 19760 | 2921
Cdk1 | SID104183296 | 77003 | 39517 | – | 3048 | 2039
Mtpbeta | SID104184455 | 1.29e5 | 87157 | – | 4884 | 3272
FarO | SID104198267 | 1.39e5 | 3.03e5 | – | 5508 | 12037
CG6659 | SID104199795 | 1.54e5 | 80835 | – | 3561 | 1697
Kdm2 | SID104194078 | 95701 | 1.18e5 | – | 3610 | 4464
DIP2 | SID104188374 | 81857 | 85576 | – | 4423 | 3545
Vha16-2 | SID104190665 | 72544 | 45869 | 44596 | 3591 | 3129
Bgb | SID104187940 | 1.36e5 | 80092 | – | 5703 | 3376
CG6891 | SID104199808 | 1.93e5 | 1.24e5 | – | 4160 | 3234
CG17928 | SID104182436 | 1.17e5 | 59603 | – | 3169 | 5344
Tep2 | SID104182471 | 98068 | 49744 | – | 3043 | 3802
Tep2 | SID104183243 | 1.57e5 | 57001 | – | 3772 | 4883
